Laboratory results as given in patent US20060264362A1, “Method of modulating smooth muscle cell functioning by modulating sphingosine kinase mediated signalling” (Medvet Science Pty. Ltd., priority 2003, published 2006).
At least one compound was matched to its structure with a doubt left.

Columns and labels:
Type in all cases: cell-based, syrian hamsters
[1] = system: isolated resistance arteries; experiment: Constrictor response to norepinephrine and dilator response to acetylcholine in transfected arteries; conditions: 1 μmol/L ACh; GFP- or Sphk-GFP-transfected arteries
smooth muscle Ca^2+ = experiment: Pressure-induced increases in smooth muscle Ca2+ (fura 2); conditions: felodipine 1 nmol/L; control arteries
Procedure: After termination of the culture period resistance arteries were washed with MOPS-buffered salt solution and transferred to an inverted microscope. Incubation with fura 2 (2 h at 37° C.) from the abluminal side allowed selective determination of smooth muscle Ca^2+ within the vascular wall. Simultaneous measurements of smooth muscle intracellular Ca^2+ and diameter were performed as described previously (Bolz, S. S., de Wit, C., Pohl, U. (1999) supra). In all 116 arteries included in the study, smooth muscle and endothelial function was assessed by testing all resistance arteries for their constrictor response to norepinephrine (NE 0.3 μmol/L) and their dilator response to acetylcholine (ACh, 1 μmol/L). […] Measurements were performed at 37° C.
(§1) To compare Ca^2+i and diameter changes over time after application of pressure, a non-linear regression analysis was employed. Briefly, the goodness of the fit to a Gompertz function was calculated for every individual curve at first and then for pooled data sets.

[2] = system: isolated resistance arteries; experiment: Pressure-induced myogenic response (reversal of initial distension), 45 to 110 mmHg; conditions: felodipine 1 nmol/L; control arteries
Description: The preparation of the vessels, the technique of calcium and diameter measurements (Bolz, S. S., de Wit, C., Pohl, U. (1999) Br J Pharmacol 128:124-134) as well as the artery culture and transfection method (Bolz, S. S., Pieperhoff, S., de Wit, C. et al. (2000) Am J Physiol Heart Circ Physiol 279:H1434-H1439) were previously described in more detail. […]
After termination of the culture period resistance arteries were washed with MOPS-buffered salt solution and transferred to an inverted microscope. […] In all 116 arteries included in the study, smooth muscle and endothelial function was assessed by testing all resistance arteries for their constrictor response to norepinephrine (NE 0.3 μmol/L) and their dilator response to acetylcholine (ACh, 1 μmol/L). […]
Myogenic responses were described as % reversal of initial distension (RID) calculated as RID=((diadistended−diatime)/(diadistended−diarest))×100, with diatime being the actual diameter of the artery at a given time point after increase in transmural pressure.
as §1

## CC(=O)OCC[N+](C)(C)C [ACh, acetylcholine]
[1]
  dilator response to ACh: complete dilations

## CCOC(=O)C1=C(C)NC(C)=C(C(=O)OC)C1c1cccc(Cl)c1Cl (stereo not drawn) [felodipine]
Smooth muscle Ca^2+
  effect on pressure-induced increases in Ca^2+: completed inhibited
[2]
  effect on pressure-induced constrictions: completed inhibited
